Results deposited as PubChem BioAssay AID1259405 (NCATS, 2018).

Assay: 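Silenced genes that increase secreted GFP made by CHO cells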 (primary screen)
System: Chinese hamster CHO-K1 ovary cells with stable secreted eGFP expression
Reagent: single siRNA against mouse genes, 0.8 pmol siRNA per well (2 µl of 400 nM stock)
Time to read-out: 3 days
Measured: 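Percent of the per-plate non-targeting control median for intracellular GFP per well by laser scanning cytometry and for cell viability by ATP luminescence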
Reading the numbers: GFP, % of control: higher = more GFP per well, higher productivity; viability (ATP), % of control: higher = more viable cells (more ATP)
Rule for the call: 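a knock-down is called active if GFP reaches 120% or more of non-targeting control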
Shown is one part, drawn at random, of about 50,000 reagents. About 4,000 of them (8%) were called active. 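Mouse siRNA library applied to hamster cells; one well for each siRNA.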 Reagents against one gene are numbered here. Reagent sequences are not shown.

Scoc (GeneID 56367) #1
- GFP, % of control: 93.7
- viability (ATP), % of control: 99.5
- Outcome: inactive

Scoc (GeneID 56367) #2
- GFP, % of control: 76.6
- viability (ATP), % of control: 47.8
- Outcome: inactive

Scoc (GeneID 56367) #3
- GFP, % of control: 134
- viability (ATP), % of control: 70.9
- Outcome: active

Efcab9 (GeneID 69306) #1
- GFP, % of control: 89.4
- viability (ATP), % of control: 120
- Outcome: inactive

Efcab9 (GeneID 69306) #2
- GFP, % of control: 64.7
- viability (ATP), % of control: 74
- Outcome: inactive

Efcab9 (GeneID 69306) #3
- GFP, % of control: 81.9
- viability (ATP), % of control: 63.3
- Outcome: inactive

Dennd2b (GeneID 76954) #1
- GFP, % of control: 75
- viability (ATP), % of control: 82.9
- Outcome: inactive

Dennd2b (GeneID 76954) #2
- GFP, % of control: 74.7
- viability (ATP), % of control: 101
- Outcome: inactive

Dennd2b (GeneID 76954) #3
- GFP, % of control: 148
- viability (ATP), % of control: 89.2
- Outcome: active

Or6c74 (GeneID 258772) #1
- GFP, % of control: 32.7
- viability (ATP), % of control: 41.3
- Outcome: inactive

Or6c74 (GeneID 258772) #2
- GFP, % of control: 84.9
- viability (ATP), % of control: 54.6
- Outcome: inactive

Or6c74 (GeneID 258772) #3
- GFP, % of control: 73.5
- viability (ATP), % of control: 69.7
- Outcome: inactive

Usp29 (GeneID 57775) #1
- GFP, % of control: 98.4
- viability (ATP), % of control: 72.1
- Outcome: inactive

Usp29 (GeneID 57775) #2
- GFP, % of control: 52.5
- viability (ATP), % of control: 70.5
- Outcome: inactive

Usp29 (GeneID 57775) #3
- GFP, % of control: 85.1
- viability (ATP), % of control: 68.3
- Outcome: inactive

Tmem87a (GeneID 211499) #1
- GFP, % of control: 59.2
- viability (ATP), % of control: 39.4
- Outcome: inactive

Tmem87a (GeneID 211499) #2
- GFP, % of control: 76
- viability (ATP), % of control: 61.3
- Outcome: inactive

Tmem87a (GeneID 211499) #3
- GFP, % of control: 77.9
- viability (ATP), % of control: 80.8
- Outcome: inactive

Records above whose target name starts with O or o:
Or6c74 (GeneID 258772) #1
- GFP, % of control: 32.7
- viability (ATP), % of control: 41.3
- Outcome: inactive

Or6c74 (GeneID 258772) #2
- GFP, % of control: 84.9
- viability (ATP), % of control: 54.6
- Outcome: inactive

Or6c74 (GeneID 258772) #3
- GFP, % of control: 73.5
- viability (ATP), % of control: 69.7
- Outcome: inactive
